We go through 30 molecules from the supplement of paper PMC4604168 (melanoma cell lines).

This is one part of the list. Single values are uncertain, as repeats are few or missing.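 The apoptosis fraction was the count of cleaved-PARP antibody-stained nuclei relative to all DNA-stained nuclei, imaged in 1,536-well plates. Screening doses were set so most cells survived, and baseline and induced cleaved-PARP levels vary greatly across cell lines.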

This assay relates to A375. Put plainly: cleaved PARP positive nuclei fraction relative to DMSO control; melanoma cells; higher = more apoptosis. The following applies: library dose: low library concentration; 72 h.
`N#Cc1c(O)c2c(-c3ccc(-c4ccccc4O)cc3)csc2[nH]c1=O` + COc1cc2ncnc(Nc3ccc(Oc4ccccc4)cc3)c2cc1OC [SrcI1] (first compound 2 µM, partner dose 2 µM): the “cleaved PARP positive nuclei fraction” value came out at 40.5%.
Regarding `CN(NC(=O)CC(=O)NN(C)C(=S)c1ccccc1)C(=S)c1ccccc1` + CC(C)CCN1c2nc(Nc3cc(F)c(O)c(F)c3)ncc2N(C)C(=O)C1C [BID1870] (first compound 0.006 µM, partner dose 0.2 µM), the “cleaved PARP positive nuclei fraction” value was 2480%.
To `CCc1ccc(CCOc2ccc(CC3SC(=O)NC3=O)cc2)nc1` (stereo not given) [pioglitazone] + N#Cc1c(O)c2c(-c3ccc(-c4ccccc4O)cc3)csc2[nH]c1=O [A769662] (first compound 2 µM, partner dose 2 µM) belongs 70.6%.
As for `Oc1nc(-c2ccc(C(F)(F)F)cc2)nc2c1CSCC2` + CCCCCCCCCCCC1=C(O)C(=O)C=C(O)C1=O [Embelin] (first compound 2 µM, partner dose 1.2 µM), the figure is 144%; as for `CCN(CC)CCCCNc1ncc2cc(-c3cc(OC)cc(OC)c3)c(NC(=O)NC(C)(C)C)nc2n1` + Cn1cc(/C=C2\C(=O)Nc3cccnc32)c2ccccc21 [GW441756] (first compound 0.1 µM, partner dose 0.4 µM), 307%.
On to `CCc1ccc(CCOc2ccc(CC3SC(=O)NC3=O)cc2)nc1` (stereo not given) [pioglitazone] + Cn1cc(/C=C2\C(=O)Nc3cccnc32)c2ccccc21 [GW441756] (first compound 2 µM, partner dose 0.4 µM), for which the “cleaved PARP positive nuclei fraction” value was determined as 148%.
As for `COc1ccc(COc2ccc(Cc3cnc(N)nc3N)cc2OC)cc1` + COc1cc2ncnc(Nc3ccc(Oc4ccccc4)cc3)c2cc1OC [SrcI1] (first compound 1 µM, partner dose 2 µM), the figure is 101%; as for `O=S(=O)(c1ccccc1)N(CC(F)(F)F)c1ccc(C(O)(C(F)(F)F)C(F)(F)F)cc1` + COc1cc2ncnc(Nc3ccc(Oc4ccccc4)cc3)c2cc1OC [SrcI1] (first compound 1.4 µM, partner dose 2 µM), 68%; as for `COc1ccc2c(c1)CCC1C2CCC2(C)C(NCCCCCCN3C(=O)C=CC3=O)CCC12` (stereo not given) + Cn1cc(/C=C2\C(=O)Nc3cccnc32)c2ccccc21 [GW441756] (first compound 0.4 µM, partner dose 0.4 µM), 666%.
`CN(NC(=O)CC(=O)NN(C)C(=S)c1ccccc1)C(=S)c1ccccc1` + Cc1cc([N+](=O)[O-])ccc1NS(=O)(=O)c1cc(Cl)ccc1Cl [FH535] (first compound 0.006 µM, partner dose 1 µM): the “cleaved PARP positive nuclei fraction” value came to 5940%.
In the case of `N#Cc1c(O)c2c(-c3ccc(-c4ccccc4O)cc3)csc2[nH]c1=O` + c1cc(-c2cnn3cc(-c4ccc(OCCN5CCCCC5)cc4)cnc23)ccn1 [Dorsomorphin] (first compound 2 µM, partner dose 0.4 µM), the “cleaved PARP positive nuclei fraction” value stood at 91.3%.
For `CCc1ccc(CCOc2ccc(CC3SC(=O)NC3=O)cc2)nc1` (stereo not given) [pioglitazone] + COc1ccc(COc2ccc(Cc3cnc(N)nc3N)cc2OC)cc1 [GW2580] (first compound 2 µM, partner dose 1 µM), the “cleaved PARP positive nuclei fraction” value came to 39.6%.
As for `COc1cc2c(Oc3ccc4[nH]c(C)cc4c3F)ncnc2cc1OCCCN1CCCC1` [cediranib] + CCc1ccc(CCOc2ccc(CC3SC(=O)NC3=O)cc2)nc1 [pioglitazone] (first compound 0.4 µM, partner dose 2 µM), the figure is 130%; as for `COc1ccc(-c2ccc3c(N4CCOCC4)nc(N4C[C@@H](C)O[C@@H](C)C4)nc3n2)cc1CO` + COc1cc2ncnc(Nc3ccc(Oc4ccccc4)cc3)c2cc1OC [SrcI1] (first compound 0.02 µM, partner dose 2 µM), 153%.
To `O=C(O)c1ccc(-c2c[nH]c3ncc(-c4ccccc4)cc23)cc1C1CCCC1` + O=S(=O)(c1ccccc1)N(CC(F)(F)F)c1ccc(C(O)(C(F)(F)F)C(F)(F)F)cc1 [T0901317] (first compound 0.16 µM, partner dose 1.4 µM) belongs 122%; to `COc1ccc(-c2ccc3c(N4CCOCC4)nc(N4C[C@@H](C)O[C@@H](C)C4)nc3n2)cc1CO` + CCN(CC)CCCCNc1ncc2cc(-c3cc(OC)cc(OC)c3)c(NC(=O)NC(C)(C)C)nc2n1 [PD173074] (first compound 0.02 µM, partner dose 0.1 µM), 125%.
As for `Oc1cc(-c2nc(-c3ccccc3)[nH]c2-c2ccncc2)ccc1Cl` + O=C1NC(=O)/C(=C/c2ccc(-c3ccc(F)cc3O)o2)S1 [AS252424] (first compound 0.2 µM, partner dose 1 µM), the figure is 682%; as for `CCc1ccc(CCOc2ccc(CC3SC(=O)NC3=O)cc2)nc1` (stereo not given) [pioglitazone] + O=C(Nc1ccccc1)c1cc([N+](=O)[O-])ccc1Cl [GW9662] (first compound 2 µM, partner dose 2 µM), 124%; as for `COc1ccc2c(c1)CCC1C2CCC2(C)C(NCCCCCCN3C(=O)C=CC3=O)CCC12` (stereo not given) + O=C(O)C(=O)Nc1sc2c(c1C(=O)O)CCNC2 [TCS401] (first compound 0.4 µM, partner dose 1.66667 µM), 207%.
In the case of `CN(C)S(=O)(=O)c1ccc2c(c1)/C(=C/c1cc3c([nH]1)CCCC3)C(=O)N2` + COc1cc(N2CCC(N3CCN(C)CC3)CC2)ccc1Nc1ncc(Cl)c(Nc2ccccc2S(=O)(=O)C(C)C)n1 [NVP-TAE684] (first compound 0.4 µM, partner dose 0.08 µM), the “cleaved PARP positive nuclei fraction” value was found to be 180%.
As for `CN(C)S(=O)(=O)c1ccc2c(c1)/C(=C/c1cc3c([nH]1)CCCC3)C(=O)N2` + N#Cc1c(O)c2c(-c3ccc(-c4ccccc4O)cc3)csc2[nH]c1=O [A769662] (first compound 0.4 µM, partner dose 2 µM), the figure is 36.3%.
Regarding `COc1ccc2c(c1)CCC1C2CCC2(C)C(NCCCCCCN3C(=O)C=CC3=O)CCC12` (stereo not given) + CC(C)CCN1c2nc(Nc3cc(F)c(O)c(F)c3)ncc2N(C)C(=O)C1C [BID1870] (first compound 0.4 µM, partner dose 0.2 µM), the “cleaved PARP positive nuclei fraction” value is 549%.
To `CCc1ccc(CCOc2ccc(CC3SC(=O)NC3=O)cc2)nc1` (stereo not given) [pioglitazone] + Oc1cc(-c2nc(-c3ccccc3)[nH]c2-c2ccncc2)ccc1Cl [L779450] (first compound 2 µM, partner dose 0.2 µM) belongs 682%.
As for `CCc1ccc(CCOc2ccc(CC3SC(=O)NC3=O)cc2)nc1` (stereo not given) [pioglitazone] + CC(C)CCN1c2nc(Nc3cc(F)c(O)c(F)c3)ncc2N(C)C(=O)C1C [BID1870] (first compound 2 µM, partner dose 0.2 µM), the figure is 202%.
For the molecule `CN(NC(=O)CC(=O)NN(C)C(=S)c1ccccc1)C(=S)c1ccccc1` + O=c1cc(-c2cccc3c2Sc2ccccc2S3)oc(N2CCOCC2)c1 [KU55933] (first compound 0.006 µM, partner dose 1 µM), the “cleaved PARP positive nuclei fraction” value was 1490%.
As for `O=C(O)c1ccc(-c2c[nH]c3ncc(-c4ccccc4)cc23)cc1C1CCCC1` + Oc1nc(-c2ccc(C(F)(F)F)cc2)nc2c1CSCC2 [XAV939] (first compound 0.16 µM, partner dose 2 µM), the figure is 118%.
To `COc1ccc(COc2ccc(Cc3cnc(N)nc3N)cc2OC)cc1` + COc1cc(N2CCC(N3CCN(C)CC3)CC2)ccc1Nc1ncc(Cl)c(Nc2ccccc2S(=O)(=O)C(C)C)n1 [NVP-TAE684] (first compound 1 µM, partner dose 0.08 µM) belongs 291%; to `COc1ccc2c(c1)CCC1C2CCC2(C)C(NCCCCCCN3C(=O)C=CC3=O)CCC12` (stereo not given) + c1cc(-c2cnn3cc(-c4ccc(OCCN5CCCCC5)cc4)cnc23)ccn1 [Dorsomorphin] (first compound 0.4 µM, partner dose 0.4 µM), 178%.
To `NCC(=O)Nc1ccc(-n2nc(C(F)(F)F)cc2-c2ccc3c(ccc4ccccc43)c2)cc1` + COc1ccc(COc2ccc(Cc3cnc(N)nc3N)cc2OC)cc1 [GW2580] (first compound 1 µM, partner dose 1 µM) belongs 7250%; to `COc1cc2ncnc(Nc3ccc(Oc4ccccc4)cc3)c2cc1OC` + COc1cc(N2CCC(N3CCN(C)CC3)CC2)ccc1Nc1ncc(Cl)c(Nc2ccccc2S(=O)(=O)C(C)C)n1 [NVP-TAE684] (first compound 2 µM, partner dose 0.08 µM), 158%.
